No constants are given. Whether binding was seen depends on the method and setting. Some results given as binding are weak or reduced against the parent protein; the word gives no strength.
Target: PD-L1 on PD-L1 overexpressing cells (human) (UniProt Q9NZQ7)
Test: phage cell-binding ELISA on PD-L1 overexpressing cells, anti-M13-HRP

Amino acid sequences for entries named in this document (tags omitted). Residues count along the entry.
UniProt Q9NZQ7, residues 19-290: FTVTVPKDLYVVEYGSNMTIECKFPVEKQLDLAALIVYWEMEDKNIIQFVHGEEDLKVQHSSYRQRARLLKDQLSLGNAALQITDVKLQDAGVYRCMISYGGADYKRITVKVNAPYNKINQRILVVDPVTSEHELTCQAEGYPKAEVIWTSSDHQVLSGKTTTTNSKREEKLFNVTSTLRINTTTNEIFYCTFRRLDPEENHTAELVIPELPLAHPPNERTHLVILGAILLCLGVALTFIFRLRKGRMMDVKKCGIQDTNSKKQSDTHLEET

B1: HUL03 scFv displayed on phage (scFv)
scFv: EVQLQESGPGLVKPSQTLSLTCTVSGDSFSSGYWNWIRQHPGKGLEYIGYVSYTGSTYYIPSLKSRVTISRDTSKNQFSLKLSSVTAADTAVYYCAGYRDWLHGYFDYWGQGTTVTVSSGGGGSGGGGSGGGGSDIQMTQSPSSLSASVGDRVTITCKASQNVGTNVAWYQQKPGKAPKRLIYSASYRFSGVPSRFSGSGSGTEFTLTISSLQPEDFATYYCQQYNSYPLTFGQGTKLEIK
- binding: binds

Reference: patent publication CN109021107A
